Laboratory results as given in the supplement of paper PMC10060354, “Discovery of a small molecule ligand of FRS2 that inhibits invasion and tumor growth” (Cellular Oncology, 2022).

Protein sequences, listed by entry. Tags and fused reporters are not part of them. Lines headed by an entry give the natural chain unless they say otherwise; changes in a name come on top.
UniProt P35240: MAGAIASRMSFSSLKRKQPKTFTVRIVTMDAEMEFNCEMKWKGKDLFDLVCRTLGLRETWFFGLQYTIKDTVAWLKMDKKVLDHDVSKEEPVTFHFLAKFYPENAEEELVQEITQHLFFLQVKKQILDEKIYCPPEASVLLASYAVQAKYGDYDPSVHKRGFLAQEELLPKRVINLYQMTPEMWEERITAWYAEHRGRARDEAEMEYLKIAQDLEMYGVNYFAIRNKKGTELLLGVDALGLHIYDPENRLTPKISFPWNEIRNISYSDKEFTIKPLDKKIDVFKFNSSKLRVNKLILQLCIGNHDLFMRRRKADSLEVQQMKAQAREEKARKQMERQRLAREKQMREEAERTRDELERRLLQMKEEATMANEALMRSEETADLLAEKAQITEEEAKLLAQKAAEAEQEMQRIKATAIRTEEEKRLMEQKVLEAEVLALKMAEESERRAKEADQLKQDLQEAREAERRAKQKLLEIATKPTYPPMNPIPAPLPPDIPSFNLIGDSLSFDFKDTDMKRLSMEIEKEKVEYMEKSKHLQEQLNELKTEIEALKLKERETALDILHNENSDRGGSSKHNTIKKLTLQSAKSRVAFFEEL
UniProt P09669, whole entry: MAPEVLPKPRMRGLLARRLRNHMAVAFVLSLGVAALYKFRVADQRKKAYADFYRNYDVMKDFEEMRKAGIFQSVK
UniProt Q9H974: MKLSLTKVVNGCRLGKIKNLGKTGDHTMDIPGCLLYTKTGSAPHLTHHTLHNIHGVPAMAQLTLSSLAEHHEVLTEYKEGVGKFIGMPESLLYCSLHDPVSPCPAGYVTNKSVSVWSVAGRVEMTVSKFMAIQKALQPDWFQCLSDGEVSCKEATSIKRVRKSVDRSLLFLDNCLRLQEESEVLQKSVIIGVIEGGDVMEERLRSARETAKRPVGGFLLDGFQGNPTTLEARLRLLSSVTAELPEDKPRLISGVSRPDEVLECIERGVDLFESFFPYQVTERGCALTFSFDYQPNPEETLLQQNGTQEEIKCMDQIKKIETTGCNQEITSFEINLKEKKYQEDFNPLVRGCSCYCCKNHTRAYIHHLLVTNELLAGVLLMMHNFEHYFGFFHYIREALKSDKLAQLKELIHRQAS
UniProt Q6NVY1: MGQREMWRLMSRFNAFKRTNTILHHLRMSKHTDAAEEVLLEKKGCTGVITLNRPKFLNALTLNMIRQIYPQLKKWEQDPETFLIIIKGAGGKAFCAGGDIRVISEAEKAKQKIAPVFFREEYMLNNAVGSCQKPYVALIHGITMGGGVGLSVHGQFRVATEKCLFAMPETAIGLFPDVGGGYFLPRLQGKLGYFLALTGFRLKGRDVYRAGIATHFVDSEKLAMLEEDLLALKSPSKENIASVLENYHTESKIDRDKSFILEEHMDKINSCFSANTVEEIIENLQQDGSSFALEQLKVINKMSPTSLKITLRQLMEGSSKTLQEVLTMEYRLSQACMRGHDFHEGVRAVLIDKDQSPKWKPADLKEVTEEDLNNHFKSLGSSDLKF
UniProt Q13948: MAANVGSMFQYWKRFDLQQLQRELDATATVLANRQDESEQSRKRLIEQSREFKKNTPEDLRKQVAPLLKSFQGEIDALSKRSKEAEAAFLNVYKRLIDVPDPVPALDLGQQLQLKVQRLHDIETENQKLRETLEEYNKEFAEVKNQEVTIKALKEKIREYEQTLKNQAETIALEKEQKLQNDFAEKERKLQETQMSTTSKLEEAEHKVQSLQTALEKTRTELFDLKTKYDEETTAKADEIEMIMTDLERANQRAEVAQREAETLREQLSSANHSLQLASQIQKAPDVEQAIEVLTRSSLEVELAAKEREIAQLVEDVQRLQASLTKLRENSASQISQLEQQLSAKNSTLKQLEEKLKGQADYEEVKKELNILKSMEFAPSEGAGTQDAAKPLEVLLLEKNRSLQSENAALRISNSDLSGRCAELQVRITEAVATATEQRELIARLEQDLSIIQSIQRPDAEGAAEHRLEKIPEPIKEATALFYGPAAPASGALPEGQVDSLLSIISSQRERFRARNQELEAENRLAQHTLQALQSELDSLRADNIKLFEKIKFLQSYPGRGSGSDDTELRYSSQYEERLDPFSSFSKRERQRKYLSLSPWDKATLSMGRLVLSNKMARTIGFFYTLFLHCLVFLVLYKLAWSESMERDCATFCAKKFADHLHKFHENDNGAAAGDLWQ
UniProt Q969G6: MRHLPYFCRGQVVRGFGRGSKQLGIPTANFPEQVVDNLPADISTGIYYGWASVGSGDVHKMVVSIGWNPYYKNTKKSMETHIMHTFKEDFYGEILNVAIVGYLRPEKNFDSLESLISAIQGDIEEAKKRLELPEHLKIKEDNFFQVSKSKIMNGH
UniProt Q9UBQ7: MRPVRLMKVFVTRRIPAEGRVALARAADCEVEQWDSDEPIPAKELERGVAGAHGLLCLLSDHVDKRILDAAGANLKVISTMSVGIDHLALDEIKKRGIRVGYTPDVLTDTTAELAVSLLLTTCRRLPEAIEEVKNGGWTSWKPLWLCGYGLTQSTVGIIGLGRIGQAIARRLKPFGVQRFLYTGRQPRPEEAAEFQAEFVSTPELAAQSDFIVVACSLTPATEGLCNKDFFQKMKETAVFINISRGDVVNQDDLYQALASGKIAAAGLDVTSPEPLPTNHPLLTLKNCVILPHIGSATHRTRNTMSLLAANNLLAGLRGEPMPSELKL
UniProt Q9NQR4: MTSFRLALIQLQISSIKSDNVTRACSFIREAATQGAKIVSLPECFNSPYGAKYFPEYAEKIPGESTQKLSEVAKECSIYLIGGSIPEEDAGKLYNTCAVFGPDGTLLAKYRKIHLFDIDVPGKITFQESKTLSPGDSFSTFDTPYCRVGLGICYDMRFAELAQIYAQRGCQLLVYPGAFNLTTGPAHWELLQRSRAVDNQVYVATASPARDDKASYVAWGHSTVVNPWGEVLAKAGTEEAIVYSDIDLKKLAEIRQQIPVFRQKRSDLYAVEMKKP
UniProt Q969F1: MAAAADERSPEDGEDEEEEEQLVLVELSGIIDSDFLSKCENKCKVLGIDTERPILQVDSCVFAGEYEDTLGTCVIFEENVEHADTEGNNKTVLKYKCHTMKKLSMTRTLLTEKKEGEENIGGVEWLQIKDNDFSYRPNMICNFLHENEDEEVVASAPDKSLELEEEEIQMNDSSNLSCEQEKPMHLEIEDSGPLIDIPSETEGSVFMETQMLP
UniProt Q9NZL4: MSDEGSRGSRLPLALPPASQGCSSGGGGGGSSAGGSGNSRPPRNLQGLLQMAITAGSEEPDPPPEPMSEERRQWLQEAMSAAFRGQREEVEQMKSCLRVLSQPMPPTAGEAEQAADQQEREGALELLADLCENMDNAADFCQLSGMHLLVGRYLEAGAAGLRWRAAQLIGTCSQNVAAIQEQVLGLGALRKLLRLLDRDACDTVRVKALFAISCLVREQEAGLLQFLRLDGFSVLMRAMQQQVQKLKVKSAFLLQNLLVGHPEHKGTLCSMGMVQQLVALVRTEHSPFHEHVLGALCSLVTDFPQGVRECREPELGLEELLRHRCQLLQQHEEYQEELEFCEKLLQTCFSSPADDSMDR
UniProt Q9Y385: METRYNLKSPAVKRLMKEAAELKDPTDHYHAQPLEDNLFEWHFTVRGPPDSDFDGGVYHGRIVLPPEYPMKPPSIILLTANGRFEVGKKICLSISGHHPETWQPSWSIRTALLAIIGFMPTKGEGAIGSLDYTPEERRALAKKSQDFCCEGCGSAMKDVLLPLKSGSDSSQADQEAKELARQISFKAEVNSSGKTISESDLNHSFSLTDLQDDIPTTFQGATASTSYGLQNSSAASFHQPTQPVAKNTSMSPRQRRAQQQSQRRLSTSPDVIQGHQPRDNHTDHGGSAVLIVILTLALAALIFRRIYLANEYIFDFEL
UniProt P28702: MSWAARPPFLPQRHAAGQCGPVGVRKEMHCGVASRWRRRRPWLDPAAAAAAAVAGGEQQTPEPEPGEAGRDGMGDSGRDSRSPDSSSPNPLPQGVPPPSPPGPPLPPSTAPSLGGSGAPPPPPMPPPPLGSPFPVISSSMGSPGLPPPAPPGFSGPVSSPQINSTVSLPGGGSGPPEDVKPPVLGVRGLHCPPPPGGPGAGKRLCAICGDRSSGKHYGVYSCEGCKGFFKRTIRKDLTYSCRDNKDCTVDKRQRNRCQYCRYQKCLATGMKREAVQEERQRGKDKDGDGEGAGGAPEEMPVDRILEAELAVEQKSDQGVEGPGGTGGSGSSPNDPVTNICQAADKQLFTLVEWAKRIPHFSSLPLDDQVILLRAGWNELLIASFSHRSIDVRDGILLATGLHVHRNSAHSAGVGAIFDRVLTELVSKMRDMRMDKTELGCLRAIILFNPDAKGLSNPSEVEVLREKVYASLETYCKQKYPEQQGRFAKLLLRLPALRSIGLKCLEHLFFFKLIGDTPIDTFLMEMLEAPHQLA
UniProt Q8TEH3: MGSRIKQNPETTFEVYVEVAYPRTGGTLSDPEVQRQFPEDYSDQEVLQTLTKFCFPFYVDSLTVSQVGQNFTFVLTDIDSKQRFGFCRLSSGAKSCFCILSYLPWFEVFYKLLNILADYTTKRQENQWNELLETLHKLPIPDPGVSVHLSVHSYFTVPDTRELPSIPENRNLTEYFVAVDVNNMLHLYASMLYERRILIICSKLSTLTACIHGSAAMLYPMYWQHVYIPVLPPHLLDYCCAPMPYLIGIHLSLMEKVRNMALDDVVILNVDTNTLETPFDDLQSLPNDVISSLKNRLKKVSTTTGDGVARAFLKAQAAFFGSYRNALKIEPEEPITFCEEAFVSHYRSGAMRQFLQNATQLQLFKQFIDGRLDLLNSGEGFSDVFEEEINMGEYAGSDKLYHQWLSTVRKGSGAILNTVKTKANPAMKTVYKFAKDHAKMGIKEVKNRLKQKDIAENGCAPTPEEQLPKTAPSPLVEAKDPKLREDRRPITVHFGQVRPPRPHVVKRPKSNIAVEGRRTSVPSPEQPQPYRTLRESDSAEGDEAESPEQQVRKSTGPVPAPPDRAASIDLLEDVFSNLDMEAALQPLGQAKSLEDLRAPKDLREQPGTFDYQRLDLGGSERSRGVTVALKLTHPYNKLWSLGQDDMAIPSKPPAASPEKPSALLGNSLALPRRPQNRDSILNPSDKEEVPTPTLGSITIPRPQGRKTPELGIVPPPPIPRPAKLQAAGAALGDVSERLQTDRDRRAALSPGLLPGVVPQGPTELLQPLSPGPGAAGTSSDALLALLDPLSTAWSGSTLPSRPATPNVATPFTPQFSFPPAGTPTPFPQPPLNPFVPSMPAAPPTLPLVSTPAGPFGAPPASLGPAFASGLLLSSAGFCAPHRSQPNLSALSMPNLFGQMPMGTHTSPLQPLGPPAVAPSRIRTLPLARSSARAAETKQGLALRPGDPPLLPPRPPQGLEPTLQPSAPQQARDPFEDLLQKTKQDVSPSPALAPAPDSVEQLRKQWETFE
UniProt Q01813: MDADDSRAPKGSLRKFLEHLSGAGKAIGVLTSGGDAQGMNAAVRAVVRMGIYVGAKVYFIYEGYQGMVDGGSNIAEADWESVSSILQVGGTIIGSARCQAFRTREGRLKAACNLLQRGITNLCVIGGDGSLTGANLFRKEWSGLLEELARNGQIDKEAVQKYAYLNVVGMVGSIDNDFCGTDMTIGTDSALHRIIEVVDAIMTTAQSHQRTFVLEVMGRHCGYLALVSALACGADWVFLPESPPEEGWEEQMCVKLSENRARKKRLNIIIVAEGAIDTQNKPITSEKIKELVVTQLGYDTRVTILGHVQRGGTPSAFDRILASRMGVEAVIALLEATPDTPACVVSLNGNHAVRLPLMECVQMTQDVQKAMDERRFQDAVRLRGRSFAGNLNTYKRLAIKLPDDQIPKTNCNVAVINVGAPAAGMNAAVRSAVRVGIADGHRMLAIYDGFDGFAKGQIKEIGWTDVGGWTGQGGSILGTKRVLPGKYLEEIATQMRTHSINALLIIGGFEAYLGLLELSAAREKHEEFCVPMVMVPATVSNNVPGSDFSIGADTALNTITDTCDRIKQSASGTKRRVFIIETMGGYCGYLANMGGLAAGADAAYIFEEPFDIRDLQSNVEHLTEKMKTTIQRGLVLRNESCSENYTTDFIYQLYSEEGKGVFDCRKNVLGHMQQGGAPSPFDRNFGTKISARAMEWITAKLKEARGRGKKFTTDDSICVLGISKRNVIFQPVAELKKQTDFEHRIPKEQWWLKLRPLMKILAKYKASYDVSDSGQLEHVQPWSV
UniProt Q9NVT9: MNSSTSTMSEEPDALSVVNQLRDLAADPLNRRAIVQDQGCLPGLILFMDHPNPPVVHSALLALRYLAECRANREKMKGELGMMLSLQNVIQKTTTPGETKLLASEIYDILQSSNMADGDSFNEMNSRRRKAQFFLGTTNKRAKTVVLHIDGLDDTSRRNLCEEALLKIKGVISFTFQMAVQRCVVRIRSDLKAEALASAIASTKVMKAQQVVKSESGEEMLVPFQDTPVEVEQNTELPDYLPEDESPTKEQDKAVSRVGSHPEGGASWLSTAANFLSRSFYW
UniProt P04216: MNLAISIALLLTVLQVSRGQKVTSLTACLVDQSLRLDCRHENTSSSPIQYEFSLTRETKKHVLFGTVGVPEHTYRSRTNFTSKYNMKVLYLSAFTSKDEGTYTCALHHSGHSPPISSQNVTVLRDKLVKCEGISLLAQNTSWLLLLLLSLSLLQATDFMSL

Compound: [O-][N+](C(C1=C(C(O)=C2)NC(C(C=C3)=CC=C3Cl)C4C1C=CC4)=C2Cl)=O
Assay: melting temperature shift (compound 7 minus DMSO); higher = compound stabilises the protein
Settings: 10 µM
Experimental: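 Thermal proteome profiling (TMT mass spectrometry) in intact DAOY medulloblastoma cells or DAOY lysates treated with 10 µM compound 7 or DMSO, heated at 10 temperatures from 40.5 to 73.8 °C for 3 min. Melting curves were fitted with the Bioconductor TPP package, and the melting point difference between compound and vehicle is reported per protein (single curve per condition).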

[1] = system: DAOY cell lysate, treatment time: 20 min, 4 °C
[2] = system: intact DAOY cells, treatment time: 90 min, 37 °C

| Target | melting temperature shift [1] | melting temperature shift [2] |
| --- | --- | --- |
| ARHGAP1 (UniProt Q07960) | -0.569 °C | -0.164 °C |
| UniProt Q96PU4 | 2.08 °C |  |
| WDR18 (UniProt Q9BV38) | 0.139 °C | 2.61 °C |
| KDM5C (UniProt P41229) | 0.66 °C | -1.21 °C |
| NF2 (UniProt P35240) | 0.517 °C | 0.168 °C |
| COX6C (UniProt P09669) | 2.94 °C |  |
| PANX1 (UniProt Q96RD7) | 3.3 °C |  |
| CAMK2D (UniProt Q13557) | -0.209 °C | 0.257 °C |
| QTRTD1 (UniProt Q9H974) | -1.72 °C | 0.946 °C |
| HMGB3 (UniProt O15347) | -1.75 °C |  |
| RANBP6 (UniProt O60518) | -0.844 °C | 0.443 °C |
| WLS (UniProt Q5T9L3) | 0.17 °C | -0.843 °C |
| VPS50 (UniProt Q96JG6) | -0.749 °C | -1.16 °C |
| UniProt Q92845 | -2.98 °C | 0.885 °C |
| UniProt Q53F19 | 1.09 °C | -0.507 °C |
| XIAP (UniProt P98170) | 0.192 °C | 1.14 °C |
| HIBCH (UniProt Q6NVY1) | -0.252 °C | -0.683 °C |
| UniProt Q6DHV7 |  | -3.55 °C |
| UniProt Q13948 |  | 0.0797 °C |
| AK1 (UniProt P00568) | -0.0765 °C | -0.902 °C |
| RFK (UniProt Q969G6) | 0.587 °C | -2.18 °C |
| UniProt Q16635 | 0.394 °C | -0.971 °C |
| SLFN5 (UniProt Q08AF3) | -0.113 °C | -2.1 °C |

| Target | melting temperature shift [1] | melting temperature shift [2] |
| --- | --- | --- |
| BRD3 (UniProt Q15059) | -0.665 °C | -0.513 °C |
| IRAK4 (UniProt Q9NWZ3) |  | 0.712 °C |
| UniProt P23470 | 0.828 °C |  |
| GRHPR (UniProt Q9UBQ7) | -0.109 °C | -0.757 °C |
| UniProt Q93079 |  | 0.352 °C |
| NIT2 (UniProt Q9NQR4) | -0.345 °C | 0.86 °C |
| NLN (UniProt Q9BYT8) | -0.112 °C | 0.561 °C |
| UniProt Q9NWB1 |  | -0.701 °C |
| ANAPC5 (UniProt Q9UJX4) | -0.263 °C | 1.55 °C |
| TFB1M (UniProt Q8WVM0) | -0.619 °C |  |
| ARHGAP28 (UniProt Q9P2N2) |  | -1.44 °C |
| PRPF40A (UniProt O75400) | 0.176 °C | -0.48 °C |
| NUDCD1 (UniProt Q96RS6) | -1 °C | 0.173 °C |
| DYNC1H1 (UniProt Q14204) | -0.578 °C | -0.682 °C |
| UniProt Q8IXK0 | -0.649 °C |  |
| GSTZ1 (UniProt O43708) | -1.04 °C | -0.976 °C |
| UniProt Q99608 | -2.26 °C | -0.916 °C |
| TRAPPC1 (UniProt Q9Y5R8) | 0.137 °C | 1.2 °C |
| CNOT7 (UniProt Q9UIV1) | -0.614 °C |  |
| SRSF2 (UniProt Q01130) | 0.183 °C |  |
| UniProt C4AMC7 |  | 1.4 °C |
| KIF1BP (UniProt Q96EK5) |  | -0.76 °C |
| PLBD2 (UniProt Q8NHP8) | 0.0395 °C | -1.96 °C |

| Target | melting temperature shift [1] | melting temperature shift [2] |
| --- | --- | --- |
| IMPA1 (UniProt P29218) | -2.45 °C |  |
| COA3 (UniProt Q9Y2R0) | 2.22 °C |  |
| GSS (UniProt P48637) | -1.18 °C | -0.824 °C |
| HEATR3 (UniProt Q7Z4Q2) | -0.355 °C | 0.0437 °C |
| GTF3C6 (UniProt Q969F1) | 1.03 °C |  |
| EXOC1 (UniProt Q9NV70) | -1.16 °C | -0.0174 °C |
| HSPBP1 (UniProt Q9NZL4) | -0.839 °C | 0.601 °C |
| RBM7 (UniProt Q9Y580) | -1.22 °C | -1.02 °C |
| PRCP (UniProt P42785) | -0.333 °C | 0.838 °C |
| UBE2J1 (UniProt Q9Y385) | 0.876 °C | -0.215 °C |
| EIF5 (UniProt P55010) | 0.191 °C | -0.643 °C |
| AK6 (UniProt Q9Y3D8) | -1.32 °C | 1.01 °C |
| GNS (UniProt P15586) | -0.773 °C | -1.48 °C |
| CCAR1 (UniProt Q8IX12) | -0.435 °C | 0.266 °C |
| SUCLA2 (UniProt Q9P2R7) | 0.812 °C | -2.67 °C |
| RXRB (UniProt P28702) | -1.16 °C |  |
| OTULIN (UniProt Q96BN8) | -0.694 °C | -0.512 °C |
| UniProt P22492 |  | -0.154 °C |
| UniProt A6NKT7 |  | 0.0249 °C |
| HOMER3 (UniProt Q9NSC5) | -2.82 °C |  |
| GINS3 (UniProt Q9BRX5) | -0.0137 °C | -1.44 °C |
| UniProt Q9BQ13 | 0.566 °C | 2.48 °C |
| UniProt P04066 |  | -0.71 °C |

| Target | melting temperature shift [1] | melting temperature shift [2] |
| --- | --- | --- |
| UniProt O15075 | 0.452 °C | -1.3 °C |
| UniProt Q9NYL2 | -0.385 °C | 0.0262 °C |
| NAB2 (UniProt Q15742) | -1.51 °C |  |
| TIGAR (UniProt Q9NQ88) | -0.726 °C | 0.835 °C |
| UniProt Q15843 | -3.65 °C | 0.941 °C |
| UniProt O43639 | -1.11 °C | -0.181 °C |
| UniProt Q8N2F6 | 0.28 °C | -1.19 °C |
| PRKCDBP (UniProt Q969G5) | 0.372 °C | 2.38 °C |
| DMXL2 (UniProt Q8TDJ6) | -0.412 °C | 0.728 °C |
| DENND1A (UniProt Q8TEH3) | -1.12 °C |  |
| PFKP (UniProt Q01813) | -0.516 °C | -0.916 °C |
| RPA2 (UniProt P15927) | -0.718 °C | 0.594 °C |
| UniProt Q14781 | 0.671 °C |  |
| ARMC1 (UniProt Q9NVT9) | -0.656 °C | 0.139 °C |
| UniProt O14950 | -0.207 °C | -0.879 °C |
| AARSD1 (UniProt Q9BTE6) | -0.316 °C | 0.678 °C |
| UniProt Q03113 | -1.89 °C |  |
| CIAPIN1 (UniProt Q6FI81) | -0.245 °C | -0.00589 °C |
| PSMC2 (UniProt P35998) | -0.477 °C | -0.824 °C |
| TMEM263 (UniProt Q8WUH6) | -1.66 °C | -0.999 °C |
| UniProt P04216 | -1.01 °C | 4.57 °C |
| GPT2 (UniProt Q8TD30) |  | 0.915 °C |
| UniProt Q9UIF9 | -1.73 °C |  |

Quoted from the listing for reference:

| Target | melting temperature shift [1] | melting temperature shift [2] |
| --- | --- | --- |
| GINS3 (UniProt Q9BRX5) | -0.0137 °C | -1.44 °C |
| UniProt Q9BQ13 | 0.566 °C | 2.48 °C |
| UniProt P04066 |  | -0.71 °C |
| UniProt O15075 | 0.452 °C | -1.3 °C |
| UniProt Q9NYL2 | -0.385 °C | 0.0262 °C |
| NAB2 (UniProt Q15742) | -1.51 °C |  |
| TIGAR (UniProt Q9NQ88) | -0.726 °C | 0.835 °C |
| UniProt Q15843 | -3.65 °C | 0.941 °C |
| UniProt O43639 | -1.11 °C | -0.181 °C |
| UniProt Q8N2F6 | 0.28 °C | -1.19 °C |
| PRKCDBP (UniProt Q969G5) | 0.372 °C | 2.38 °C |
| DMXL2 (UniProt Q8TDJ6) | -0.412 °C | 0.728 °C |
| DENND1A (UniProt Q8TEH3) | -1.12 °C |  |
| PFKP (UniProt Q01813) | -0.516 °C | -0.916 °C |
| RPA2 (UniProt P15927) | -0.718 °C | 0.594 °C |
| UniProt Q14781 | 0.671 °C |  |
| ARMC1 (UniProt Q9NVT9) | -0.656 °C | 0.139 °C |
| UniProt O14950 | -0.207 °C | -0.879 °C |
| AARSD1 (UniProt Q9BTE6) | -0.316 °C | 0.678 °C |
| UniProt Q03113 | -1.89 °C |  |
| CIAPIN1 (UniProt Q6FI81) | -0.245 °C | -0.00589 °C |
| PSMC2 (UniProt P35998) | -0.477 °C | -0.824 °C |
| TMEM263 (UniProt Q8WUH6) | -1.66 °C | -0.999 °C |

Many values rest on one well or one pass, so single values are uncertain.
